## Screening data

From PubChem BioAssay record AID1224904 (Broad Institute, 2016).

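293T-iDUX4 cells carrying a ZSCAN4-driven Gaussia luciferase and a tet-on Italica luciferase control; the gap between the two luminescence signals is read after 24 h.
The test concentration is not given here.
Percent difference between the Gaussia and Italica channels; more negative values mean more selective suppression of the DUX4 reporter, and higher values mean less activity.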

Values are in %.
The controls that fix the scale are not given here.
Common to all entries: measured here: selective DUX4 reporter inhibition.
Part of the compounds only, not a random draw; the main read-out is not listed here.

O=C(C[C@H]1CC[C@H](NC(=O)c2ccc3c(c2)OCO3)[C@@H](CO)O1)NCc1ccc(Oc2ccccc2)cc1 read Gaussia minus Italica difference -8.36%. With O=C(c1ccc2c(c1)OCO2)N1CC(=O)N2[C@@H](CO)[C@H](c3ccc(C#CCC4CCCC4)cc3)[C@@H]2C1 the assay gave Gaussia minus Italica difference -12.61%. With C/C=C/c1ccc([C@@H]2[C@@H](CO)N3C(=O)CN(S(=O)(=O)c4ccccc4)C[C@@H]23)cc1 the assay gave Gaussia minus Italica difference -1.519%. O=C(C[C@H]1CC[C@H]2[C@@H](COC[C@H](O)CN2C(=O)Nc2ccc(Cl)c(Cl)c2)O1)NCc1ccc(Cl)c(Cl)c1 gave Gaussia minus Italica difference -4.82%.

C[C@H]1CN([C@@H](C)CO)C(=O)c2c(c3ccccc3n2C)-c2ccccc2CO[C@@H]1CN(C)C(=O)Nc1cccc(F)c1 gave Gaussia minus Italica difference -5.696%. C[C@@H]1CN([C@@H](C)CO)C(=O)c2c(c3ccccc3n2C)-c2ccccc2CO[C@H]1CN(C)C(=O)[C@H](C)c1ccccc1 read Gaussia minus Italica difference -16.81%. With CCN1[C@@H]2c3ccc(-c4ccccc4F)c(=O)n3C[C@H]1[C@H](CO)[C@H]2C(=O)N1CCCCC1 the assay gave Gaussia minus Italica difference -11.34%. With COc1ccc(C#Cc2ccc([C@H]3[C@@H](CO)N4C(=O)CN(C(=O)c5ccc(F)cc5)C[C@@H]34)cc2)cc1 the assay gave Gaussia minus Italica difference -5.065%.

For COc1ccc(C#Cc2ccc([C@@H]3[C@H](CO)N4C(=O)CN(C(=O)Nc5ccccc5F)C[C@@H]34)cc2)cc1 the result was Gaussia minus Italica difference 2.635%. O=C(C[C@@H]1C[C@H]2c3cc(NC(=O)c4ccc5c(c4)OCO5)ccc3O[C@H]2[C@H](CO)O1)NCc1cccc(F)c1 gave Gaussia minus Italica difference -11.96%. Result for COc1ccc2c3c(n(C)c2c1)[C@@H](CO)N(C)CC31CN(C(=O)c2ccc3c(c2)OCO3)C1 was Gaussia minus Italica difference -10.9%. O=C(C[C@H]1CC[C@H]2[C@@H](COC[C@H](O)CN2Cc2ccc(Cl)cc2)O1)NCc1cccc(F)c1 read Gaussia minus Italica difference -7.261%.

C[C@@H]1CN([C@@H](C)CO)C(=O)c2c(c3ccccc3n2C)-c2ccccc2CO[C@H]1CN(C)S(=O)(=O)c1ccc(F)cc1 read Gaussia minus Italica difference -16.69%. O=C(C[C@@H]1CC[C@@H]2[C@H](COC[C@H](O)CN2CCC(F)(F)F)O1)N1CCC(Cc2ccccc2)CC1 read Gaussia minus Italica difference -6.386%. Result for COc1cccc(NC(=O)N(C)C[C@@H]2OCc3ccccc3-c3c(n(C)c4ccccc34)C(=O)N([C@H](C)CO)C[C@@H]2C)c1 was Gaussia minus Italica difference 13.13%. With CC(C)NC(=O)N1CCCCN2[C@H](CO)[C@@H](c3ccc(C#Cc4ccccc4)cc3)[C@H]2C1 the assay gave Gaussia minus Italica difference 12.65%.

For CN1c2ccc(-c3ccccc3)cc2[C@H]2[C@H](CCN2S(=O)(=O)c2ccccc2F)[C@@H]1CO the result was Gaussia minus Italica difference 6.811%. With CCCNC(=O)Nc1ccc2c(c1)OC[C@H](C)N(CC1CCCC1)C[C@H](C)[C@@H](OC)CN(C)C2=O the assay gave Gaussia minus Italica difference -15.92%. With O=C(C[C@@H]1C[C@H]2c3cc(NC(=O)c4ccc5c(c4)OCO5)ccc3O[C@H]2[C@@H](CO)O1)NC1CCCCC1 the assay gave Gaussia minus Italica difference 0.5471%. For O=C(C[C@@H]1C[C@H]2c3cc(NC(=O)c4ccc5c(c4)OCO5)ccc3O[C@H]2[C@H](CO)O1)NC1CCCCC1 the result was Gaussia minus Italica difference 3.536%.

O=S(=O)(c1ccccc1)N1CCCCN2[C@H](CO)[C@H](c3ccc(-c4ccccc4)cc3)[C@@H]2C1 read Gaussia minus Italica difference -6.112%.

Some entries from above, unchanged:

* COc1ccc(C#Cc2ccc([C@@H]3[C@H](CO)N4C(=O)CN(C(=O)Nc5ccccc5F)C[C@@H]34)cc2)cc1 | Gaussia minus Italica difference 2.635%
* COc1ccc(C#Cc2ccc([C@H]3[C@@H](CO)N4C(=O)CN(C(=O)c5ccc(F)cc5)C[C@@H]34)cc2)cc1 | Gaussia minus Italica difference -5.065%